These results are taken from PubChem BioAssay AID2685 (National Center for Advancing Translational Sciences (NCATS), 2010).

For orientation: AC50 means the concentration at which the activity in the assay is half-maximal. Higher therefore signals activity only at high concentration.

The other results are listed elsewhere or left out. These are further read-outs of the screen, such as a control signal, another cell line or another target. No call is given for them. Compounds called inactive in the main read-out are mostly missing here. Words in brackets tell the shape of the fitted curve; partial curves, single points and poor fits give uncertain potencies.

The assay can be described thus: qHTS Assay for Lipid Storage Modulators in Drosophila S3 Cells.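 For cell number change: cells counted by Cell Tracker Red CMTPX staining in the red channel.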 The following applies: BODIPY lipid droplet fluorescence, 18-24 h; for cell number change: measured here: cell count max response, cells fed with added oleic acid. Summed up:
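Laser-scanning cytometry quantifies lipid droplet accumulation (500–530 nm total intensity; droplet/cell object ratio) in oleic acid-fed (400 uM added) Drosophila S3 cells treated with a concentration series. 20 uM Triacsin C defined 100% inhibition.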

The mark [1] stands for this setting: measured here: lipid fluorescence (Fed channel) AC50, cells fed with added oleic acid.
Where [2] appears, read: measured here: cell number channel AC50, cells fed with added oleic acid.

On to `COC1=C(c2ccccc2)C(=O)c2ccccc2C1=O`, for which the cell number change is -20%. Further, the AC50 under setting [1] is 0.0461 µM [falling, full curve].

Take `O=[N+]([O-])c1ccc(S(=O)(=O)N2CCSC2c2ccco2)cc1` (stereo unspecified): the cell number change was -15.9%. Under setting [2], the concentration at half-maximal activity (AC50) is 0.13 µM [falling, full curve, poor fit]. Further, the concentration at half-maximal activity (AC50) under setting [1] is 0.13 µM [falling, full curve, poor fit].

Take `COc1ccc(-c2cc(C(=O)Oc3ccc([N+](=O)[O-])cc3)c3ccccc3n2)cc1`: the cell number change was -19.2%. Also, the AC50 under setting [1] was 0.411 µM [falling, full curve].

Regarding `CCOC(=O)c1cc(-c2ccccc2)sc1NC(=O)C(C)N1C(=O)NC(C)(c2ccc(Cl)cc2)C1=O` (stereo unspecified), the cell number change was -7.63%.

For `Cc1cccc(C)c1NC(=O)CCCN1CC(C)OC(C)C1` (stereo unspecified), the cell number change is 9.48%.

Regarding `OCCCNc1nc(-c2ccc(Cl)cc2)nnc1-c1ccccc1`, the AC50 reads like this: under setting [2], 0.651 µM [rising, single point]; under setting [1], 0.0146 µM [rising, full curve, poor fit].

`CCC(=N\NC(=O)COc1ccccc1OC)/C(CC)=N/NC(=O)COc1ccccc1OC`: the cell number change turned out to be 6.72%.

For the molecule `COc1cc(/C=C/C2=NC(=O)C(C)(C)O2)ccc1O`, the cell number change was -10.6%. Besides, the AC50 under setting [1] was 6.51 µM [falling, partial curve, poor fit].

Consider `COc1ccc(CNC(=O)C2CCN(C(=O)[C@@H]3Cc4ccccc4CN3)CC2)cc1`, for which the cell number change is -21%. The AC50 under setting [2] was 1.46 µM [rising, partial curve].

Consider `CC1CN(S(=O)(=O)Cc2ccccc2)CC(C)O1` (stereo unspecified), for which the cell number change was -1.82%.

As to `COc1ccc(CCNC(=O)COc2cc(O)c3c(c2)OC(C)(C)CC3=O)cc1OC`, the cell number change was -19.9%. The half-maximal activity concentration (AC50) under setting [1] was 5.8 µM [falling, full curve].

Take `Cc1ccc2c(COC(=O)c3ccc(C)c(C)c3)cc(=O)oc2c1`: the cell number change is -12.4%. The AC50 under setting [2] was 0.116 µM [falling, full curve, poor fit].

As to `COc1ccc(CN(C)CC(=O)Nc2cccc(S(N)(=O)=O)c2)c(OC)c1OC`, the cell number change was found to be 141%. Besides, under setting [2], the AC50 is 18.4 µM [rising, partial curve]. Also, the AC50 under setting [1] was 20.6 µM [rising, partial curve].

For `O=C(CCCc1ccccc1)NCc1ccccn1`, the cell number change was 16.1%. Moreover, the AC50 under setting [2] was 0.651 µM [rising, full curve, poor fit].

On to `Cc1ccccc1NC(=O)Cc1nc(COC(=O)CCc2ccccc2)cs1`, for which the cell number change is -9.5%. Further, under setting [1], the half-maximal activity concentration (AC50) was 0.231 µM [falling, partial curve, poor fit].

For the molecule `O=c1c2cccnc2n(-c2ccccc2)n1Cc1c(Cl)cccc1Cl`, the cell number change was -9.78%.

Consider `O=C(CSc1nc2ncc(Cl)cc2[nH]1)NC1CCS(=O)(=O)C1` (stereo unspecified), for which the cell number change is -22.5%.

For `CCOc1ccc(-c2cc(C(=O)N/N=C(\C)c3cccnc3)c3ccccc3n2)c(OCC)c1`, the cell number change is -7.92%. Further, the half-maximal activity concentration (AC50) under setting [1] was 0.58 µM [rising, single point].

For `O=C(Nc1ccc(N2CCN(Cc3ccccc3)CC2)cc1)c1ncn[nH]1`, the cell number change was -0.468%. Under setting [2], the AC50 was 0.103 µM [falling, single point].

In the case of `O=C(NCc1cccnc1)Nc1ccc(Cl)cc1`, the cell number change came out at 3.18%. In addition, under setting [1], the AC50 is 2.31 µM [rising, partial curve].

Take `CCOC(=O)CN(C(=O)CSc1nnc(COc2ccc(OC)cc2)n1CC)c1ccccc1`: the cell number change was -17.7%. Besides, the AC50 under setting [1] is 29.1 µM [falling, single point].

As for `CCCCOc1cccc(C(=O)Nc2ccc(S(=O)(=O)Nc3cc(C)on3)cc2)c1`, the cell number change is -28.9%. Under setting [1], the AC50 is 5.62 µM [falling, single point].

For the molecule `COCCCn1c(-c2cccs2)nc2nc3ccccc3nc21`, the cell number change was found to be 15.5%.

With `CN(C)c1nc(N)nc(N(c2ccccc2)c2ccccc2)n1`, the cell number change was found to be 5.74%. The AC50 under setting [1] is 25.9 µM [rising, single point].

As for `COc1ccc(C(=O)N2CCn3c(C)ccc3C2C)cc1` (stereo unspecified), the cell number change turned out to be 12.2%.

Take `CSc1ccc(CNc2nnnn2C)cc1`: the cell number change was -16%.

As for `COc1ccccc1-n1c(=O)[nH]c2c(C(N)=O)nc(C3CCCCC3)nc21`, the AC50 under setting [2] is 6.51 µM [falling, single point].

`CCOC(=O)N1CCC(N(CCOC)C(=O)Nc2ccc(C)c(C)c2)CC1`: the cell number change was -0.71%.

Turning to `c1ccc(CCCc2nc(-c3cccnc3)no2)cc1`, the cell number change was -18.8%.

On to `COc1ccc(C(=O)CSc2nnc(-c3cc(C)on3)o2)cc1`, for which the cell number change is -44.1%. Further, under setting [2], the AC50 was 29.1 µM [falling, single point].

Take `NC(=O)C1CCN(C2CC(=O)N(Cc3ccc(N4CCCC4=O)cc3)C2=O)CC1` (stereo unspecified): the cell number change was 1.77%. For the same molecule, under setting [2], the AC50 is 0.146 µM [falling, full curve, poor fit]. Besides, the AC50 under setting [1] is 18.4 µM [falling, partial curve].

Turning to `CC1(C)N=C(/C=N/O)C=[N+]1[O-]`, the concentration at half-maximal activity (AC50) under setting [1] is 5.8 µM [falling, full curve].

As for `Cc1ccccc1-n1nc(-c2cccnc2)cc1C(=O)NN`, the cell number change amounted to 22.6%. Besides, under setting [1], the AC50 was 0.651 µM [rising, full curve, poor fit].

In the case of `O=C(CNc1ccc(Br)cc1)Nc1cccc(S(=O)(=O)N2CCCC2)c1`, the cell number change turned out to be 5.76%. Besides, the AC50 under setting [2] was 7.31 µM [falling, single point]. Under setting [1], the AC50 was 0.651 µM [falling, full curve, poor fit].

Consider `OC(COc1ccc2c(c1)OCO2)CN1CCN(c2ccccc2)CC1` (stereo unspecified), for which the cell number change is 20.5%.

As to `O=C(COc1ccc2ccccc2c1)N1CCN(c2ccccc2O)CC1`, the cell number change is -31.4%. The AC50 under setting [2] was 18.4 µM [falling, partial curve, poor fit].

In the case of `COc1ccc(C(=O)c2ccc(CC#N)s2)cc1`, the cell number change was 3.77%. Besides, the AC50 under setting [1] is 29.1 µM [rising, single point].

For the molecule `CC1(C)CC2(CCCN3C(=O)CSC32)CCS1` (stereo unspecified), the cell number change came to 44%. Moreover, under setting [2], the AC50 is 29.1 µM [rising, single point]. Moreover, the AC50 under setting [1] is 29.1 µM [rising, single point].

Consider `CC(=O)c1ccc(N2CCN(C(=O)C3CCCN3S(=O)(=O)c3cccc4nsnc34)CC2)cc1` (stereo unspecified), for which the cell number change was -27.4%. Besides, under setting [1], the AC50 is 6.51 µM [rising, single point].

Regarding `Cc1cc(OCC(=O)N(C)C2CCCCC2)cc(C)c1Cl`, the cell number change was -25%.

For the molecule `COc1ccc(C(=O)NC(=S)Nc2ccc(S(=O)(=O)Nc3cc(OC)nc(OC)n3)cc2)cc1`, the cell number change is -7.98%. Besides, the AC50 under setting [1] was 0.103 µM [rising, partial curve, poor fit].

For `COc1ccc(/C=N/NC(=O)c2cccc(NC(=O)c3ccc(Cl)cc3)c2)c(OC)c1`, the cell number change was -34.5%. Also, under setting [2], the half-maximal activity concentration (AC50) is 16.4 µM [falling, single point]. Also, the AC50 under setting [1] was 1.84 µM [rising, full curve].

For the molecule `Cc1c(NS(=O)(=O)c2ccc3c(c2)n(C)c(=O)n3C)c(=O)n(-c2ccccc2)n1C`, the cell number change is 2.82%. Moreover, the AC50 under setting [1] was 0.116 µM [falling, single point].

Regarding `N#C/C(=N\Nc1ccc(F)cc1)C(=N)N1CCCCC1`, the cell number change came out at 54.8%. Besides, under setting [2], the AC50 was 9.2 µM [rising, partial curve]. In addition, the AC50 under setting [1] was 4.61 µM [rising, single point].

Turning to `CCOc1ccc(C2=Nn3c(nnc3-c3ccco3)SC2)cc1`, the cell number change is -20%. The AC50 under setting [2] was 2.91 µM [falling, partial curve]. Moreover, the half-maximal activity concentration (AC50) under setting [1] is 1.84 µM [falling, full curve].

In the case of `Cc1c(C(=O)N(Cc2nnc(-c3ccccc3Cl)o2)C2CC2)oc2ccccc12`, the cell number change is -32.4%. For the same molecule, the AC50 under setting [2] was 16.4 µM [falling, single point].

Turning to `O=c1c(-c2nnc(SCc3ccc(Cl)cc3Cl)o2)cccn1Cc1ccccc1`, the cell number change was found to be 25.6%.

Turning to `Cc1ccc(C)c(/C(O)=C2/C(=O)C(=O)N(CCN3CCOCC3)C2c2ccco2)c1` (stereo unspecified), the cell number change is 11.2%. Moreover, the AC50 under setting [1] was 6.51 µM [rising, partial curve, poor fit].

Turning to `COc1ccc(N=Cc2c(O)[nH]c3ccccc23)cc1`, the cell number change was -20.1%. In addition, the AC50 under setting [1] was 25.9 µM [falling, partial curve, poor fit].

As to `CC(=O)c1ccccc1NC(=O)CSc1nnc2ccccn12`, the AC50 reads like this: under setting [2], 1.84 µM [rising, partial curve]; under setting [1], 5.17 µM [rising, single point].

As to `Cc1ccc(C)c(OCC(=O)O/N=C(\N)c2cccnc2)c1`, the AC50 under setting [2] is 2.31 µM [rising, partial curve].

Turning to `COc1cc(NC(=S)NC(=O)c2ccccc2C)ccc1NC(=O)c1cccs1`, the AC50 under setting [2] is 0.92 µM [rising, full curve] and the AC50 under setting [1] was 0.92 µM [rising, full curve].

As for `O=C(Nc1ccnn1C1CCN(C/C=C/c2ccccc2)CC1)c1cccc(F)c1`, the cell number change is -1.52%. In addition, under setting [1], the AC50 is 14.6 µM [rising, single point].

As for `Cc1cccc(/C=N/NC(=O)c2ccc(F)cc2)n1`, the cell number change came to 19%. Further, the AC50 under setting [1] is 6.51 µM [falling, single point].

Consider `O=C(O)CCCC(=O)Nc1ccc(Br)cc1`, for which the cell number change turned out to be 3.84%.

`Cn1nc(CC(=O)N2CCN(c3ccccc3)CC2)c2ccccc2c1=O`: the cell number change was -17.6%. Also, the AC50 under setting [1] was 20.6 µM [falling, single point].

Take `Cc1cccc(NC(=O)CNC(=O)c2cc(C3CC3)nn2-c2ccccc2)c1C`: the cell number change is -45.6%. Besides, under setting [2], the AC50 is 29.1 µM [falling, single point].

With `Cc1ccc(NS(=O)(=O)c2ccc3c(c2)NC(=O)C(C)C(=O)N3)c(Cl)c1` (stereo unspecified), the cell number change turned out to be 8.93%.

As to `COc1ccccc1N(C)S(=O)(=O)c1ccc(C(=O)N2CCC(C(N)=O)CC2)cc1`, the cell number change was 36.5%. The AC50 under setting [2] was 13 µM [rising, partial curve].

On to `Cc1nc2c(-c3ccccc3)c(C)[nH]n2c(=O)c1Cc1ccccc1`, for which the cell number change was -19.4%. Under setting [1], the AC50 was 18.4 µM [falling, single point].

With `CCOC(=O)C1=NNC2C(=O)N(CC)C(=O)C12` (stereo unspecified), the AC50 under setting [1] is 16.4 µM [falling, partial curve].

As to `O=C1CCCC2=C1C(c1ccccc1)CC(=O)N2c1ccccc1` (stereo unspecified), the cell number change was -12.1%. The AC50 under setting [1] is 18.4 µM [falling, single point].

`COCCN(C(=O)C(C)C)c1nnc(-c2cccc(C)c2)s1`: the cell number change was -32.3%. In addition, the AC50 under setting [2] is 0.92 µM [falling, full curve, poor fit].

For the molecule `CCC(=Nc1ccc(Cc2ccncc2)cc1)c1c(O)n(C)c(=O)n(C)c1=O`, the AC50 under setting [2] is 5.17 µM [rising, single point] and the AC50 under setting [1] is 29.1 µM [rising, partial curve].
